Measured values reported in article PMC3899335, “ParABS System in Chromosome Partitioning in the Bacterium Myxococcus xanthus”.
The comparison behind a weaker result is the experiment's own reference, which may not be listed here. Protein sequences can lack the tags named with them.

Target: T1, ParB (Myxococcus xanthus DK1050) (UniProt Q1CVJ4)
T1 sequence (looked up): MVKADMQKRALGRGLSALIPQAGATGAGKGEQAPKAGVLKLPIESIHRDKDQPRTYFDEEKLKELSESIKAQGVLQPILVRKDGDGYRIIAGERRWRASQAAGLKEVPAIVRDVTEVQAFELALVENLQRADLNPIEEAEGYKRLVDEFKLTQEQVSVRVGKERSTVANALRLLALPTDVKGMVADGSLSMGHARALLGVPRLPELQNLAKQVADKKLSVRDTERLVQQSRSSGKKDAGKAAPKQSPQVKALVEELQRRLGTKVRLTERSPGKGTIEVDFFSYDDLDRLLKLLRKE
Assay: EMSA (polyacrylamide)
Details: only a faint, barely detected band at highest ParB; 40 mM Na-phosphate pH 8, 20 mM NaCl, 7% glycerol, 20 ug/ml BSA, 100 ug/ml sheared salmon sperm DNA, 30 C (30 min agarose, 1 h polyacrylamide); gels run at 4 C; recombinant protein; residues 1-296; label: 32P 5' end

Q: Does “ACTCACTCATGGCCTCCGTACCCTGCACAAGGTGAAGGATGACTCGAGCA (double strand) [mutated parS 50 bp (11 point mutations)]” bind?
A: binds more weakly
